Where two headings read alike, the source gives them in different places.
Experiments:
[1] = cited from earlier work; for polarization enhancement factor ε: 90 K, field of 5 T, irradiation strength 1.5 W, 13C urea
[2] = DNP with polarizing agent, polarization of 13C urea (5 T, 93 K, MAS); conditions: for growth factor ε+ at stationary state (positive polarization): irradiation strength on the order of 2.5 W, 1H polarization detected via 13C urea; for ε+ when the irradiation strength tends towards infinity: extrapolated to infinite irradiation strength (FIG. 7)

1-(TEMPO-4-oxy)-3-(TEMPO-4-amino) propan-2-ol [TOTAPOL]
polarization enhancement factor ε ([1]; polarizing agent 5 mM): 190±20
growth factor ε+ at stationary state (positive polarization) ([2]; 93 K, 5 T): 180
ε+ when the irradiation strength tends towards infinity [2]: 230

CC1(C)CCCC(C)(C)N1[O] [TEMPO]
polarization enhancement factor ε ([1]; polarizing agent 40 mM): 40±5
augmentation factors of polarization, ε ([1]; TEMPO concentration on the order of 40 mM, 13C urea nucleus): ~40

bis-TEMPO-bis-Ketal [bTbK]
growth factor ε+ at stationary state (positive polarization) ([2]; 93 K, 5 T): 250
polarization growth time constant ([2]; 93 K, 5 T, 9 mM bTbK, 2 M 13C-urea in d6-DMSO/D2O/H2O (77/17/6)): 7 s
ε+ when the irradiation strength tends towards infinity [2]: 325

— patent US9035054B2, “Dinitroxide-type biradical compounds optimized for dynamic nuclear polarization (DNP)” (Universite D'Aix-Marseille, priority 2009, dated 2015)
